Reference: patent US20260008815A1, “CYCLIC PEPTIDE OR SALT THEREOF, AND USES THEREOF” (FUJIFILM Corporation, priority 2023, published 2026)
These are yes or no findings as the source states them, for the method shown. Some results given as binding are weak or reduced against the parent protein; the word gives no strength.

Protein sequences, listed by entry. Tags and fused reporters are not part of them. Lines headed by an entry give the natural chain unless they say otherwise; changes in a name come on top. Residues count along the entry.
UniProt P11362, residues 22-376: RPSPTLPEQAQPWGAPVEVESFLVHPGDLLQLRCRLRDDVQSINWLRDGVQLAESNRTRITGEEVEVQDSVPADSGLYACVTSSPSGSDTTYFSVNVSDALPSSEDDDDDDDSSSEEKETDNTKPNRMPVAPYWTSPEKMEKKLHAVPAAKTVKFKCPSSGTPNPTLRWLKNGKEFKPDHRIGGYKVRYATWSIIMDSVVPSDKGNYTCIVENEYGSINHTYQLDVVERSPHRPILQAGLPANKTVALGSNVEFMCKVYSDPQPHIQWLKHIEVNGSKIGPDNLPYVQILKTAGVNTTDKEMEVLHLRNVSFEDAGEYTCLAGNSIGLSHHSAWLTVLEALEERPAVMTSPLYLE
UniProt P21802, residues 22-377: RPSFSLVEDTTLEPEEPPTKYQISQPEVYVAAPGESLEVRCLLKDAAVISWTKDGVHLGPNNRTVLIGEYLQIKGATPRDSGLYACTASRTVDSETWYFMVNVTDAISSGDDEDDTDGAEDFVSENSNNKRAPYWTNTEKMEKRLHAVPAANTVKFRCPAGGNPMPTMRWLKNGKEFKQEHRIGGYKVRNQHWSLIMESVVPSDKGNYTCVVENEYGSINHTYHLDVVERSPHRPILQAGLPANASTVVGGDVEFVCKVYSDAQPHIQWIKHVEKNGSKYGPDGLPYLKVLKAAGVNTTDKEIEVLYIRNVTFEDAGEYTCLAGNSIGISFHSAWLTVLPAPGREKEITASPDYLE
UniProt P22607, residues 23-375: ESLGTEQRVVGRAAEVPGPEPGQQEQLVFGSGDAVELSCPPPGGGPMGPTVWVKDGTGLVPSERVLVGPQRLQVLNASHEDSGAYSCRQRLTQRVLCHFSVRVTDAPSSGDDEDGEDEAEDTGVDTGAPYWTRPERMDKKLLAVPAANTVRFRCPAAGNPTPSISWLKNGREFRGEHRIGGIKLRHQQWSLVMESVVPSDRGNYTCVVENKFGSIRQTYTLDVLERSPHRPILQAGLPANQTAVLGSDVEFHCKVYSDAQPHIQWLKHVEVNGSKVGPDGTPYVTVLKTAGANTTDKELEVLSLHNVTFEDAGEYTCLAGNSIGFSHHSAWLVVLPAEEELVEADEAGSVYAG

How the values were obtained:
Assay in all cases: SPR, 1 umol/L FGFR over immobilized peptide
[1] = target: FGFR1 Protein, Human, Recombinant (His Tag) (Sino Biological, 10616-H08H) (human) (UniProt P11362)
[2] = target: FGFR2 Protein, Human, Recombinant (His Tag) (Sino Biological, 10824-H08H) (human) (UniProt P21802)
[3] = target: FGFR3 Protein, Human, Recombinant (ECD, His Tag) (Sino Biological, 16044-H08H) (human) (UniProt P22607)

Measured: binding

YCEENYLDPEQYQYFIYFKYKKK (thioether ring (C)-(K(acetyl))) [cyclic peptide SEQ ID NO: 450]
binds: all assays above
